From publication PMC6679068

T1: HIS-GFP-tagged full-length CpnA (copine A) (Dictyostelium discoideum) (UniProt Q7YXU4)
T1 sequence: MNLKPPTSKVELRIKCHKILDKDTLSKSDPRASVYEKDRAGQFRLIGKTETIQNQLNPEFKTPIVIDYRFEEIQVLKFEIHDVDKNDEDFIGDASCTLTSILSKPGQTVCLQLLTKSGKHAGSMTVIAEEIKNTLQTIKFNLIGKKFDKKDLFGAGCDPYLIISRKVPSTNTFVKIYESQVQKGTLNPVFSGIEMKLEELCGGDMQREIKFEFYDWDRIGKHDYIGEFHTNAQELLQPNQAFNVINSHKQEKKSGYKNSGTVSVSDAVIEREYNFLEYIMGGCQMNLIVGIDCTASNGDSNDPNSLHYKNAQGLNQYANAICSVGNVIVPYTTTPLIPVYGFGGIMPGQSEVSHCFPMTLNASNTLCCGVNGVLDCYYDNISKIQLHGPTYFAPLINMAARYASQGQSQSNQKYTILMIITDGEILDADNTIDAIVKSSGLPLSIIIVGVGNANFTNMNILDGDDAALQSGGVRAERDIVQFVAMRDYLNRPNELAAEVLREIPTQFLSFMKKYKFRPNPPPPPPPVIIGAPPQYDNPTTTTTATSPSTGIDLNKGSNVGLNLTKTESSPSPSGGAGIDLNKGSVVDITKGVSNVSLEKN


What follows are molecules tested against T1, HIS-GFP-tagged full-length CpnA (copine A) (Dictyostelium discoideum) (assay: affinity purification with mass spectrometry; purified GFP-CpnA covalently coupled to agarose beads (Aminolink Plus) in a column; soluble proteins of NC4A2 lysate with 10 mM CaCl2, pH 7.4 applied; washed in homogenization buffer with 2 mM CaCl2; eluted with 0.2 M glycine pH 2.5; control column with beads only; bands from SDS-PAGE identified by MALDI MS; only the target purified).

binding | Molecule
binds | discoidin I
binds | Acetylornithine deacetylase (enzyme, UniProt P54638 1-447) MTKPVASYELDEKRFLTLLGKLIGETENLQNRPPALIPIEDNAGRHVIEALTPYLKANGGVLELEQVHCDPVNYPKRGNIIIEYPGTSKGTSSPKTISFVGSHLDVVPADKTAWDRNPFQLIIEGDKLYGRGTTDCLGHVALLTDLFIQLATEKPALKHSIFAVFIVSEENDEIPGIGVDALDHSGKMNPCKNGPVYWVDSADSQPTIGTGGAQTWNLTAHGKNMHSAMPYRTVNSVELVNEALAEIQRRFYIDFKPHPKEAEYKFDCSSTMKPTLWKPIAGSYNTIPGESTICGDIRLTPFYDMKEMRAKVEGYIKDINANITELRNRGPYSKYDVPASEGVEPVKGSVSIEWLGEASAGVACKLDSDGYKALGKATSEILGSLTPVATCGTLPLVRDLQDSGFDIQITGFGKEETYHADNEYALLSDFKNAIKILSRTIDLLEKN
binds | S-adenosyl-L-homocysteine hydrolase (enzyme, UniProt P10819 1-431) MTKLHYKVKDISLAAWGRKEIEIAENEMPGLMTLRKKYGPAQILKGARIAGCLHMTIQTAVLIETLTALGAQVQWSSCNIFSTQDQAAAAIAATGVPVYAWKGETEEEYNWCVEQTIVFQDGQPLNMILDDGGDLTNLVHEKYPQFLAGIKGISEETTTGVHNLYKMFKEGKLKVPAINVNDSVTKSKFDNLYGCRESLIDGIKRATDVMIAGKVAVVAGYGDVGKGCAQSLSKMGARVLVTEIDPINALQACMDGYQIVTMETAAPLSNIFVTTTGCRDIVRGEHFAVMKEDAIVCNIGHFDCEIDVAWLNANAKKDTVKPQVDRYTLANGVHIILLAEGRLVNLGCGTGHPSFVMSNSFCNQTLAQIALWTKTEEYPLGVHFLPKILDEEVARLHLDQLGAKLTTLTEKQSEYLSVPVAGPYKVDHYRY
binds | discoidin II (protein, UniProt P42530 1-257) MSVPAGSVSCLANALLNLRSSTDYNADHGVKNSILNFSNSKDASRFDGSESWSSSVLDKNQFIVAGSDSVKHFVAISTQGRGDHDQWVTSYKLRYTLDNVNWVEYNNGEIINANKDRNSIVTINFNPPIKARSIAIHPQTYNNHISLRWELYALPVKSYSNPSVQVGEVSIGDRSLNSGTGSRTIVRHVKFPVEFLSVPIVSIGCKKVDAHTDNGQMRWEGKSENITTKGFDLTFITWGNNAVYDLTFDYVAVEFNN

These are yes or no findings as the source states them, for the method shown. Binding seen in cells or lysates may run through a third protein. Here binding means that the protein was enriched with, or labelled near, the bait; the list need not be complete. Where a sequence is shown, tags or fusion partners need not be part of it.
